# Data as given in PubChem BioAssay AID624297 (National Center for Advancing Translational Sciences (NCATS), 2012).
# Screen size: about 340,000 compounds; about 6,200 (1.8%) were called active. The shares of active, inactive and inconclusive entries below differ from those in the screen. Calls follow the shape of the dose curve; as a rule, active = well fitted activation curve with a large enough effect; inconclusive = small, poorly fitted or top-dose-only effect; inactive = no such curve, though single readings can be large or run the other way. A potency beside an inconclusive call is a rough fit, not a confirmed value.
# Test: A quantitative high throughput screen for small molecules that induce DNA re-replication in SW480 colon adenocarcinoma cells. Also: nearly all actives have a fitted effect of over 55% in size. As to re-replication activation: % of control where 0% means no effect.
# Settings: Hoechst DNA content imaging, 48 h; re-replication activation: at 46.1 µM (top of the series) unless noted
# Method in brief: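 Image-based read-out: total Hoechst fluorescence of nuclei (405 nm excitation, 500-530 nm emission), with hits raising the fraction of high-intensity nuclei. SW480 colon cells incubated 48 hr with compounds at 37 C.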
# Potency is read from the fitted curve at half-maximal effect.
Structure (SMILES),re-replication activation,Potency
O=C(NCCCNC(=O)c1cnccn1)c1ccc(Br)cc1,inactive: 1.23%,–
CCSc1nc2cc(OC)c(OC)cc2c(=O)n1CCc1ccccc1,inactive: -8%,–
Cn1nnc(NC(=O)/C=C/c2ccco2)n1,–,"inconclusive: 0.0092 µM [activator, full curve, poor fit]"
Cc1ccnc2nc(C(=O)OCC(=O)c3c[nH]c4ccccc34)nn12,–,"inconclusive: 10.3 µM [activator, single point]"
CC1CC(=O)N(CC(=O)NCc2ccc3c(c2)OCO3)c2ccccc2S1 (stereo unspecified),inactive: -11.1%,–
N=c1c2c(-c3ccccc3)c(-c3ccccc3)n(Cc3ccccc3)c2ncn1CCCO,–,"inconclusive: 18.4 µM [activator, single point]"
O=C(CCc1ccccc1)NNC(=O)Nc1ccc(Cl)cc1,inactive: 1.34%,–
COc1cc(NC(=O)c2ccccc2)c(OC)cc1NC(=O)Cc1ccc(Br)cc1,–,"inconclusive: 20.6 µM [activator, single point]"
Cc1cc2nc3c(=O)n(C4CCCCC4)c(=O)[nH]c3nc2cc1N,–,"inconclusive: 25.9 µM [activator, single point]"
COc1ccccc1C(CNC(=O)CCNC(=O)c1ccccc1Cl)N1CCCC1 (stereo unspecified),–,"inconclusive: 18.4 µM [activator, partial curve]"
Cc1ccc(S(=O)(=O)/N=C(\Nc2cc(C)on2)c2ccc(Cl)cc2)cc1,–,"inconclusive: 0.326 µM [activator, partial curve, poor fit]"
NC(=O)COC(=O)c1ccccc1Nc1ccc(SC(F)F)cc1,inactive: -4.29%,–
COC(=O)CSC1=NS(=O)(=O)c2ccccc21,–,"inconclusive: 20.6 µM [activator, single point]"
CCOc1ccc(NC(=O)c2ccc(F)cc2F)cc1,–,"inconclusive: 0.58 µM [activator, partial curve, poor fit]"
Cc1noc(C)c1C(=O)Nc1nc(-c2ccc(F)c(F)c2)cs1,inactive: -8.21%,–
COc1ccc(CCNC(=S)N2CCC(C(=O)c3ccc(F)cc3)CC2)cc1OC,inactive: -15%,–
Nc1nc(Sc2c([N+](=O)[O-])cc(C(F)(F)F)cc2[N+](=O)[O-])n[nH]1,–,"inconclusive: 16.4 µM [activator, partial curve, poor fit]"
CCn1ccc(C(=O)Nc2ccccc2Cl)n1,–,"inconclusive: 29.1 µM [activator, single point]"
O=c1[nH]c(CN2CCN(S(=O)(=O)/C=C/c3ccccc3)CC2)nc2cc(Cl)ccc12,–,"inconclusive: 29.1 µM [activator, single point]"
COCC(C)NS(=O)(=O)c1ccc(NC(=O)c2ccccn2)cc1 (stereo unspecified),inactive: -5.27%,–
CC1CC(C)CN(C(=O)C(C)N2CCN(S(=O)(=O)c3ccc(Br)s3)CC2)C1 (stereo unspecified),inactive: 1.22%,–
COc1ccc(-n2nnc3c(=O)n(CC(=O)Nc4cc(C)on4)cnc32)cc1,–,"inconclusive: 29.1 µM [activator, single point]"
COc1ccc(/C(N)=N/OC(=O)COc2ccccc2Cl)cc1,–,"inconclusive: 13 µM [activator, partial curve, poor fit]"

Structure (SMILES),re-replication activation,Potency
CCOc1cc(/C=N/O)cc(Br)c1OC,–,"inconclusive: 29.1 µM [activator, partial curve, poor fit]"
Nc1nc(NCc2ccco2)nc(N2CCN(Cc3ccccc3)CC2)c1[N+](=O)[O-],–,"inconclusive: 0.291 µM [activator, full curve, poor fit]"
COc1ccc([C@H]2/C=C\CN(C(=O)[C@H](Cc3ccccc3)NC(=O)OCC3c4ccccc4-c4ccccc43)CC(=O)N2Cc2ccc(F)cc2)cc1,inactive: -0.988%,–
O=C1CCCc2cc3c(cc21)CC1(C3)Cc2cc3c(cc2C1)C(=O)CCC3,–,active: 5.8 µM
Cn1nnnc1SCCNCc1ccccc1OCc1ccccc1Cl,inactive: -1.35%,–
COc1cccc(CN2CCN(c3cccc(C(F)(F)F)c3)CC2)c1OC,inactive: 14.9%,–
O=S(=O)(c1ccccc1)c1nc(-c2ccccc2Cl)oc1NCCCN1CCOCC1,–,"inconclusive: 25.9 µM [activator, single point]"
CC(=O)N1c2ccc(S(=O)(=O)NCCC(=O)N(C)C3CCCCC3)cc2CC1C (stereo unspecified),–,"inconclusive: 23.1 µM [activator, single point]"
COn1c(-c2ccc(Cl)cc2)nc2ncccc21,inactive: 3.28%,–
[O-]/C(=C(\C(=S)Nc1cccc2ccccc12)[n+]1cccc(CO)c1)c1ccc(Cl)s1,inactive: -1.39%,–
CC1=N/C(=C\c2ccc([N+](=O)[O-])cc2)C(=O)N1c1cc(Cl)ccc1C,inactive: 1.17%,–
COc1ccc(CN2C(=O)C(CC(C)C)Nc3ncnc(N4CCOCC4)c32)cc1 (stereo unspecified),inactive: -1.73%,–
COc1ccc(N2C(=O)C(O)C2c2ccc(C)cc2)cc1 (stereo unspecified),–,"inconclusive: 16.4 µM [activator, partial curve, poor fit]"
CC(C(=O)Nc1ccc(F)c(F)c1F)N(C)CCOc1ccccc1 (stereo unspecified),–,"inconclusive: 1.64 µM [activator, partial curve]"
CCc1ccccc1NC(=O)C1CCCN(S(=O)(=O)c2ccc3c(c2)CC(C)N3C(C)=O)C1 (stereo unspecified),inactive: 15.9%,–
COCCCNC(=S)NCCNc1nc2c(C)c(C)ccc2cc1C#N,–,"inconclusive: 9.2 µM [activator, partial curve, poor fit]"
CCC1CO/C(=C(\C(Cl)=C(Cl)Cl)[N+](=O)[O-])N1 (stereo unspecified),inactive: -1.37%,–
CC(=O)Nc1ccccc1NC(=O)C/C(C)=N/NC(=O)C(=O)N1CCCCC1,inactive: 2.13%,–
CCC(C(=O)NCc1ccc(C)o1)n1nc(C)c2c(C)n(-c3ccccc3)nc2c1=O (stereo unspecified),–,"inconclusive: 1.16 µM [activator, full curve, poor fit]"
O=C1c2cccc(OCC(=O)N3CCCc4ccccc43)c2CCN1Cc1ccccc1,inactive: -6.65%,–
C=CCN(C(=O)CSc1nc2c(sc3ccccc32)c(=O)n1CCN(CC)CC)c1ccccc1,–,"inconclusive: 29.1 µM [activator, single point]"
COc1ccc(N2CCCn3c2nc2c3c(=O)n(Cc3ccc(C)cc3)c(=O)n2C)c(OC)c1,–,"inconclusive: 6.51 µM [activator, single point]"
CCCOc1ccc(N2C(=O)CC(N(Cc3ccccc3)N=O)C2=O)cc1 (stereo unspecified),inactive: -13.3%,–

# As entered above.
# Under re-replication activation, COc1cccc(CN2CCN(c3cccc(C(F)(F)F)c3)CC2)c1OC is listed with inactive: 14.9%
# Under Potency, COc1ccc(-n2nnc3c(=O)n(CC(=O)Nc4cc(C)on4)cnc32)cc1 is listed with inconclusive: 29.1 µM [activator, single point]
# Under Potency, COC(=O)CSC1=NS(=O)(=O)c2ccccc21 is listed with inconclusive: 20.6 µM [activator, single point]
